Reference: paper PMC5469495, “MicroRNA319-regulated TCPs interact with FBHs and PFT1 to activate CO transcription and control flowering time in Arabidopsis” (PLoS Genetics, 2017)
Results are given in words; binding and its absence hold for the method and conditions named. For part of these data: Binding can be weak; no strength is given. For part of these data: Binding seen in cells or lysates may run through a third protein. For part of these data: Tags and fused reporters may be left off the sequences shown.

Chains of the proteins cited; added tags and fusions are not shown. Lines headed by an entry give the natural chain unless they say otherwise; changes in a name come on top.
UniProt Q9C8P8: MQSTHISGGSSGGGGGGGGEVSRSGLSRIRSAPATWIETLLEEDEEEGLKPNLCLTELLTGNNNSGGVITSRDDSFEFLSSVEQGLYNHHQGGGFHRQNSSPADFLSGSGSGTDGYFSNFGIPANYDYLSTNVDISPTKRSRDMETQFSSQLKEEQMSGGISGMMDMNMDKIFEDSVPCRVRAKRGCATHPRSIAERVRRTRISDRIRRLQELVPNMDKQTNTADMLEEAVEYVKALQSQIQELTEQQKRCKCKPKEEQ
UniProt Q9M0R0: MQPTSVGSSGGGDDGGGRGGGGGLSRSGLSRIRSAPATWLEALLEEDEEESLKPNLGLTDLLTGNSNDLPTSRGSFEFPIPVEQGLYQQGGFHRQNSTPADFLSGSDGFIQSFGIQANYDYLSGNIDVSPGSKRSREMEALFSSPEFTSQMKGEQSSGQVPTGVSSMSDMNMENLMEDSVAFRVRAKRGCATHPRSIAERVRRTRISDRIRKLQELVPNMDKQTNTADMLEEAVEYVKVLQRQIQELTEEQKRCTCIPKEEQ
UniProt Q9C690: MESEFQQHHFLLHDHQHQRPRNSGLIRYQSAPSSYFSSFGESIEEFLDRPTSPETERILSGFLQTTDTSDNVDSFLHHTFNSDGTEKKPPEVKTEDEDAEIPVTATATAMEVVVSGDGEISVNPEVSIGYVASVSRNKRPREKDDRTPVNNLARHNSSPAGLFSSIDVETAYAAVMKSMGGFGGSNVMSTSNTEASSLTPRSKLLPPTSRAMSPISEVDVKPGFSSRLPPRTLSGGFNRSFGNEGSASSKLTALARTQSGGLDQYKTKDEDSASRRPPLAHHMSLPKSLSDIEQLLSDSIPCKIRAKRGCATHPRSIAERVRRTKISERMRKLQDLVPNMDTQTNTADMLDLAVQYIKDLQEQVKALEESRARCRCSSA
UniProt Q66GR3: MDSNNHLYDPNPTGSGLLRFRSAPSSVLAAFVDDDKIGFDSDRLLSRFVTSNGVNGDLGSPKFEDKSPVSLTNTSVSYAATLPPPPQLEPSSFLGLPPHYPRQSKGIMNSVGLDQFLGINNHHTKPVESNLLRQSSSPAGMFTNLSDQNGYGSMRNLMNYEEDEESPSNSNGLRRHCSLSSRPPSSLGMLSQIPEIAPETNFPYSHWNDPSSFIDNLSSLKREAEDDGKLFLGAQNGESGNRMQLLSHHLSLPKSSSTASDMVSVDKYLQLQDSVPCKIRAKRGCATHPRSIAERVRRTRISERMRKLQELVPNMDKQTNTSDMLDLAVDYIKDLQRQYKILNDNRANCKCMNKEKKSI

Experiments:
[1] = target: T1, CDF1 (Arabidopsis thaliana) (UniProt Q8W1E3); experiment: two-hybrid; GAL4-AD and GAL4-BD derivatives co-transformed into yeast strain AH109; grown on SD-L/W, screened on SD-L/W/H or SD-L/W/H/A with 3-AT
T1 sequence: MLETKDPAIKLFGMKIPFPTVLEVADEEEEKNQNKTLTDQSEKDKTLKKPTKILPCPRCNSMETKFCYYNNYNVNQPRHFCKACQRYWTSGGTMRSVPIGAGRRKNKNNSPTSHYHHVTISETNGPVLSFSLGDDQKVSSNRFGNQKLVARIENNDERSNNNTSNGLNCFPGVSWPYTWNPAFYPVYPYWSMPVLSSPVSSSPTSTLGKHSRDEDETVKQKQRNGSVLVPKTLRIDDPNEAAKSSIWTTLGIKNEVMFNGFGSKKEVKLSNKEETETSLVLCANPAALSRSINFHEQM

[2] = target: T2, CDF2 (Arabidopsis thaliana) (UniProt Q93ZL5); experiment: as above
T2 sequence: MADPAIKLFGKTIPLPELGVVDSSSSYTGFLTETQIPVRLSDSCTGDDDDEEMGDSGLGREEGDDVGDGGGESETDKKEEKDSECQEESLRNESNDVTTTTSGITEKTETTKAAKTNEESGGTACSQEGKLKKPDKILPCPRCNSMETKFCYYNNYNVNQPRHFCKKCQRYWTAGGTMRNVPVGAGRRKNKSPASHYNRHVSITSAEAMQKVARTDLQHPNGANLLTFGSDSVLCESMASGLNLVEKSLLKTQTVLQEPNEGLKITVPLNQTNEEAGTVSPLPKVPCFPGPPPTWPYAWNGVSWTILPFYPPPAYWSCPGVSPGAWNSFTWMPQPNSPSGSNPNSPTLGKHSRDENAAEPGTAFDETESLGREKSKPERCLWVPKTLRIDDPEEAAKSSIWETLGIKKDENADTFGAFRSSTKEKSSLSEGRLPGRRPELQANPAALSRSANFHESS

[3] = target: T3, CDF3 (Arabidopsis thaliana) (UniProt Q8LFV3); experiment: as above
T3 sequence: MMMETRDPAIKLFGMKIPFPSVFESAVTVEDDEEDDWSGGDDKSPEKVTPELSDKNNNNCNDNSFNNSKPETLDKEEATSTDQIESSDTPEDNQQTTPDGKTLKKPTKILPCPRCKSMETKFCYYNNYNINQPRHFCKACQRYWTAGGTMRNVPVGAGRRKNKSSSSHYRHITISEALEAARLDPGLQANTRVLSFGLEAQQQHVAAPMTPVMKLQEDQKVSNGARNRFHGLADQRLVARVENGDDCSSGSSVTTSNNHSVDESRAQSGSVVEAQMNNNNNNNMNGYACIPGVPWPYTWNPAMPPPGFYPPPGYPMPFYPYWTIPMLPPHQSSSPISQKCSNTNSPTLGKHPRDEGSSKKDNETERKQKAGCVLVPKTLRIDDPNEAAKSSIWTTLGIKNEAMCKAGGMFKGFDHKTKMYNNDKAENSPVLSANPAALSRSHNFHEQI

[4] = target: T4, PHYTOCHROME AND FLOWERING TIME 1 (Arabidopsis thaliana) (UniProt Q7XYY2); experiment: as above
T4 sequence: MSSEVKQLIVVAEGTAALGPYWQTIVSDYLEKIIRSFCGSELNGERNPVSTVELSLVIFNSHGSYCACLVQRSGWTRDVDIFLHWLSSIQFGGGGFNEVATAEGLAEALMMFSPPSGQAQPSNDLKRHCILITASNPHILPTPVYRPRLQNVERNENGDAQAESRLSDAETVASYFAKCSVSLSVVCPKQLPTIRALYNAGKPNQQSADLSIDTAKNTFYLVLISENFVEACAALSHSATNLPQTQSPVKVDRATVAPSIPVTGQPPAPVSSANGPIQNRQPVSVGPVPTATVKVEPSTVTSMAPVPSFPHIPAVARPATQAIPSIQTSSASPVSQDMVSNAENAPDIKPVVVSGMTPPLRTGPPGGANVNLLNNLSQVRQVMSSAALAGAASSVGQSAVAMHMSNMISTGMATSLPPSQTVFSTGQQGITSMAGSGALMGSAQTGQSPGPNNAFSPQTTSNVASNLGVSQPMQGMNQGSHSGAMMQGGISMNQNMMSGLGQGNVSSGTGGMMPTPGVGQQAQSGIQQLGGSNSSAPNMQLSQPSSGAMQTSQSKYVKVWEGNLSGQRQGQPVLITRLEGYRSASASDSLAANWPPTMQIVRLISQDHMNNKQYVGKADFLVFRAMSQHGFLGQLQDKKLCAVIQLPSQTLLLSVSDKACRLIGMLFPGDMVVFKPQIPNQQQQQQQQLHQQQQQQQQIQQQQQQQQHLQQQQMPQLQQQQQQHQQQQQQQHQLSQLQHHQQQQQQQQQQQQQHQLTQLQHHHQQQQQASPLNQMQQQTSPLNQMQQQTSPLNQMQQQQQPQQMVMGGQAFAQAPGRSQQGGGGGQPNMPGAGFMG

[5] = target: T4, PHYTOCHROME AND FLOWERING TIME 1 (Arabidopsis thaliana); experiment: split reporter; LUC complementation imaging (LCI): nLUC and cLUC fusions co-infiltrated by Agrobacterium into N. benthamiana leaves; LUC activity 48 h after infiltration
[6] = target: FLOWERING BHLH 1 (Arabidopsis thaliana) (UniProt Q9C8P8); experiment: two-hybrid; GAL4-AD and GAL4-BD derivatives co-transformed into yeast strain AH109; grown on SD-L/W, screened on SD-L/W/H or SD-L/W/H/A with 3-AT
[7] = target: FLOWERING BHLH 1 (Arabidopsis thaliana) (UniProt Q9C8P8); experiment: split reporter; LUC complementation imaging (LCI): nLUC and cLUC fusions co-infiltrated by Agrobacterium into N. benthamiana leaves; LUC activity 48 h after infiltration
[8] = target: FBH1-GFP (Arabidopsis thaliana) (UniProt Q9C8P8); experiment: co-IP; total proteins of FBH1-GFP/TCP4-Myc double transgenic Arabidopsis plants; anti-GFP- or anti-Myc-conjugated agarose beads; lysis buffer 50 mM Tris-HCl pH 7.5, 150 mM NaCl, 5 mM EDTA, 0.1% Triton X-100, 0.2% NP-40; single transgenic plants as controls

| Molecule | binding [1] | binding [2] | binding [3] | binding [4] | binding [5] | binding [6] | binding [7] | binding [8] |
| --- | --- | --- | --- | --- | --- | --- | --- | --- |
| FBH2 (from UniProt Q9M0R0) | no binding | no binding | no binding | binds | binds |  |  |  |
| FBH3 (from UniProt Q9C690) | no binding | no binding | no binding | binds | binds |  |  |  |
| FBH4 (from UniProt Q66GR3) | no binding | no binding | no binding | binds | binds |  |  |  |
| TCP2 (protein, UniProt Q93V43 1-365) MIGDLMKNNNNGDVVDNEVNNRLSRWHHNSSRIIRVSRASGGKDRHSKVLTSKGPRDRRVRLSVSTALQFYDLQDRLGYDQPSKAVEWLIKAAEDSISELPSLNNTHFPTDDENHQNQTLTTVAANSLSKSACSSNSDTSKNSSGLSLSRSELRDKARERARERTAKETKERDHNHTSFTDLLNSGSDPVNSNRQWMASAPSSSPMEYFSSGLILGSGQQTHFPISTNSHPFSSISDHHHHHPHHQHQEFSFVPDHLISPAESNGGAFNLDFNMSTPSGAGAAVSAASGGGFSGFNRGTLQSNSTNQHQSFLANLQRFPTSESGGGPQFLFGALPAENHHHNHQFQLYYENGCRNSSEHKGKGKN |  |  |  |  |  | binds | binds |  |
| TCP3 (protein, UniProt Q9MAH8 1-391) MAPDNDHFLDSPSPPLLEMRHHQSATENGGGCGEIVEVQGGHIVRSTGRKDRHSKVCTAKGPRDRRVRLSAPTAIQFYDVQDRLGFDRPSKAVDWLITKAKSAIDDLAQLPPWNPADTLRQHAAAAANAKPRKTKTLISPPPPQPEETEHHRIGEEEDNESSFLPASMDSDSIADTIKSFFPVASTQQSYHHQPPSRGNTQNQDLLRLSLQSFQNGPPFPNQTEPALFSGQSNNQLAFDSSTASWEQSHQSPEFGKIQRLVSWNNVGAAESAGSTGGFVFASPSSLHPVYSQSQLLSQRGPLQSINTPMIRAWFDPHHHHHHHQQSMTTDDLHHHHPYHIPPGIHQSAIPGIAFASSGEFSGFRIPARFQGEQEEHGGDNKPSSASSDSRH |  |  |  |  |  | binds | binds |  |
| TCP10 (protein, UniProt O82277 1-361) MGLKGYSVGEGGGEIVEVQGGHIIRATGRKDRHSKVFTSKGPRDRRVRLSAHTAIQFYDVQDRLGYDRPSKAVDWLIKKAKTAIDKLELGETTTTTTRQEPVNTKPESPTLVFQRENNDQTQFVAANLDPEDAMKTFFPATTTTNGGGGTNINFQNYPHQDDNNMVSRTTTPPPNLSQDLGLSLHPFQGNNNTVVVPETNNFTTTHFDTFGRISGWNHHDLTMTSSSSSEHQQQEQEERSNGGFMVNHHPHHHHHQPSMMTLLNSQQQQVFLGGQQQQQQRGTLQSSLFPHSFRSWDHHQTTSDHHHHQNQASSMFASSSQYGSHGMMMMQGLSFPNTTRLLHGEEATQPNSSSSPPNSHL |  |  |  |  |  | binds | binds |  |
| TCP24 (protein, UniProt Q9C758 1-324) MEVDEDIELQKHQEQQSRKLQRFSEDNTGLMRNWNNPSSRIIRVSRASGGKDRHSKVLTSKGLRDRRIRLSVATAIQFYDLQDRLGFDQPSKAVEWLINAASDSITDLPLLNTNFDHLDQNQNQTKSACSSGTSESSLLSLSRTEIRGKARERARERTAKDRDKDLQNAHSSFTQLLTGGFDQQPSNRNWTGGSDCFNPVQLQIPNSSSQEPMNHPFSFVPDYNFGISSSSSAINGGYSSRGTLQSNSQSLFLNNNNNITQRSSISSSSSSSSPMDSQSISFFMATPPPLDHHNHQLPETFDGRLYLYYGEGNRSSDDKAKERR |  |  |  |  |  | binds | binds |  |
| TCP4-Myc (protein, UniProt Q8LPR5 1-420) MSDDQFHHPPPPSSMRHRSTSDAADGGCGEIVEVQGGHIVRSTGRKDRHSKVCTAKGPRDRRVRLSAHTAIQFYDVQDRLGFDRPSKAVDWLIKKAKTSIDELAELPPWNPADAIRLAAANAKPRRTTAKTQISPSPPPPQQQQQQQQLQFGVGFNGGGAEHPSNNESSFLPPSMDSDSIADTIKSFFPVIGSSTEAPSNHNLMHNYHHQHPPDLLSRTNSQNQDLRLSLQSFPDGPPSLLHHQHHHHTSASASEPTLFYGQSNPLGFDTSSWEQQSSEFGRIQRLVAWNSGGGGGATDTGNGGGFLFAPPTPSTTSFQPVLGQSQQLYSQRGPLQSSYSPMIRAWFDPHHHHQSISTDDLNHHHHLPPPVHQSAIPGIGFASGEFSSGFRIPARFQGQEEEQHDGLTHKPSSASSISRH |  |  |  |  |  |  |  | binds |
